The values that follow are results of earlier work, collected in patent US8399497B2, “Thiazole derivatives and use thereof” (Merck Serono SA, priority 2005, dated 2013).

The test system of the series is Class I PI3-kinases. The note with it: cited from earlier work.

Where two headings read alike, the source gives them in different places.

For `O=c1cc(N2CCOCC2)oc2c(-c3ccccc3)cccc12` [LY294002], the IC50 (read-out: IC50 against each of the Class I PI3-kinases) is 15 to 20 µM.

On to `COC[C@H]1OC(=O)c2coc3c2[C@@]1(C)C1=C(C3=O)[C@@H]2CCC(=O)[C@@]2(C)C[C@H]1OC(C)=O` [wortmannin], for which, under “read-out: IC50 against each of the various Class I PI3-kinases”, the IC50 is 0.001 to 0.01 µM.

Usually IC50 stands for the concentration at which inhibition is half-maximal.
